These are yes or no findings as the source states them, for the method shown. Some results given as binding are weak or reduced against the parent protein; the word gives no strength.
Biological target: endogenous IRF3 (interferon response factor 3) of PK15 cells (pig (endogenous in PK15)) (UniProt Q764M6)
Assay: native gel or EMSA

binding: binds
B1: endogenous IRF3 (interferon response factor 3) of PK15 cells (protein, UniProt Q764M6 1-419)
chain: MGTQKPRILPWLISQLNQGQLEGVAWLDEGHTRFRIPWKHGLRQDAQQEDFGIFQAWAEASGAYTPGKDKPDLPTWKRNFRSALNRKEALRLAEDHSKDPHDPHKIYEFVTSGVGDFPEPDTSLDLSGRYSTSDTHEDSLDKLLSGMDLASDAGPQSLTLALEQPPQLSLSPSVDAPASCPNLGVRENPLKQLLANDDEWEFQVTVFYRGCQVFQQTVCSPGGLRLVGSEAEDGTLAGQPVRLPDPAASLTDRGVADYVRRVLSCLGGGLALWRAGQWLWAQRLGHCHVYWAMGEELIPDSGHKPDGEVPKDREGGVFDLGPFIEDLIAFIEGSRRSPRYTLWFCMGQSWPQDEPWVKRLVMVKVVPMCLRALVDMARDGGASSLENTVDLHISNSHPLSLTSDQYKACLRDLVEDMDF
